Data taken from patent publication US10106782B2, “High-titer HCV full-length genotype 2B infectious cell culture systems and applications thereof” (Hvidovre Hospital, priority 2013, dated 2018).
For at least one compound, name, drawing or mass did not settle the structure.

Experiments:
Assay type in all cases: cell-based, hepatitis C virus
[1] = system: genotype 2a (strain J6) full-length virus; experiment: Antiviral treatment of HCV infected Huh7.5 cultures, high throughput assay, virus J6
Protocol: (§1) HCV infected cultures were treated with NS3 Protease, NS5A, and NS5B polymerase inhibitors (purchased from Acme Bioscience) in a high throughput assay. Immunostaining of fixed 96-well plates was performed using anti-core C7- and anti-NS5A 9E10 at dilutions 1/450 and 1/1000, respectively.
(§2) Concentration-response curves and EC50 values were calculated. The non-cytotoxic dose ranges for all drugs were determined with a cytotoxicity assay (CellTiter 96 AQueous One Solution Cell Proliferation Assay, Promega).
(§3) HCV genetic divergence influences the sensitivity to lead direct acting antivirals. Our developed full-length culture systems permit the study of frontline HCV DAAs in the context of the complete HCV life cycle. Thus, we determined the efficacy of DAAs targeting different viral proteins against genotype 1a (strain TN), 2a (strain J6 and recombinant J6core-NS2/JFH18, referred to as JFH1, since it has the JFH1 protease, NS5A and NS5B), and 2b (strains DH8, J8, and DH10). For 2b viruses we used 3rd passage DH8_LSG, 5th passage J8cc, and 3rd passage DH10_LSG (FIGS. 6-10).

[2] = system: genotype 1a (strain TN) full-length virus; experiment: Antiviral treatment of HCV infected Huh7.5 cultures, high throughput assay, virus TN
Protocol: as §1, §2, §3

[3] = system: genotype 2b strain J8 (5th passage J8cc); experiment: Antiviral treatment of HCV infected Huh7.5 cultures, high throughput assay, virus J8
Protocol: as §1, §2, §3

[4] = system: 2a recombinant J6core-NS2/JFH1, referred to as JFH1; experiment: Antiviral treatment of HCV infected Huh7.5 cultures, high throughput assay, virus JFH1
Protocol: as §1, §2, §3

[5] = system: genotype 2b strain DH8 (3rd passage DH8_LSG); experiment: Antiviral treatment of HCV infected Huh7.5 cultures, high throughput assay, virus DH8
Protocol: as §1, §2, §3

[6] = system: genotype 2b strain DH10 (3rd passage DH10_LSG); experiment: Antiviral treatment of HCV infected Huh7.5 cultures, high throughput assay, virus DH10
Protocol: as §1, §2, §3

In the case of `COC(=O)N[C@H](C(=O)N1CCC[C@H]1c1nc(-c2ccc(-c3ccc(-c4c[nH]c([C@@H]5CCCN5C(=O)[C@@H](NC(=O)OC)C(C)C)n4)cc3)cc2)c[nH]1)C(C)C` [Daclatasvir], the “inhibition of virus (concentration-response)” value (from here on “inhibition of virus”) ([1]; J6(2a) in Huh7.5 cells, non-cytotoxic drug concentrations) is reported as “inhibited all viruses”, the “EC50 / sensitivity of virus, stated in words” value (“EC50 / sensitivity of virus” below) ([1]; J6(2a), numbers only in FIG. 11) is reported as “inhibited at nanomolar concentration” and the “inhibition of virus” value ([2]; TN(1a) in Huh7.5 cells, non-cytotoxic drug concentrations) is reported as “inhibited all viruses”. For the same compound, the “EC50 / sensitivity of virus” value ([2]; TN(1a), numbers only in FIG. 11) was “inhibited at sub-nanomolar drug concentration”, the “inhibition of virus” value ([3]; J8(2b) in Huh7.5 cells, non-cytotoxic drug concentrations) was “inhibited all viruses” and the “EC50 / sensitivity of virus” value ([3]; J8(2b), numbers only in FIG. 11) was “inhibited at nanomolar concentration”. For the same compound, the “inhibition of virus” value ([4]; JFH1(2a) in Huh7.5 cells, non-cytotoxic drug concentrations) was “inhibited all viruses”, the “EC50 / sensitivity of virus” value ([4]; JFH1(2a), numbers only in FIG. 11) was “inhibited at sub-nanomolar drug concentration” and the “inhibition of virus” value ([5]; DH8(2b) in Huh7.5 cells, non-cytotoxic drug concentrations) was “inhibited all viruses”. For the same compound, the “EC50 / sensitivity of virus” value ([5]; DH8(2b), numbers only in FIG. 11) was “inhibited at sub-nanomolar drug concentration”, the “inhibition of virus” value ([6]; DH10(2b) in Huh7.5 cells, non-cytotoxic drug concentrations) was “inhibited all viruses” and the “EC50 / sensitivity of virus” value ([6]; DH10(2b), numbers only in FIG. 11) was “inhibited at nanomolar concentration”.
